Results taken from article PMC8053501 (Diabetes, Metabolic Syndrome and Obesity: Targets and …, 2021).

Experiment: in vivo
Conditions: male, ICR, mouse, po

Tmax: 1 h | Tmax (3 mg/kg): 1 h
Compound: CC1=C(C(=O)O)N2C(=O)[C@@H](NC(=O)[C@H](N)c3ccccc3)[C@H]2SC1 [Cephalexin, cephalexin]
